{"source": "PubChem BioAssay AID485314", "about": "(National Center for Advancing Translational Sciences (NCATS), 2010)", "note": "Screen size: about 340,000 compounds; about 4,500 (1.3%) were called active. Inconclusive results, whose numbers are uncertain, are shown with a selection of clear calls. Calls come from the whole dose curve; as a rule, active = well fitted inhibition curve with a large enough effect; inconclusive = small, poorly fitted or top-dose-only effect, or another doubt; inactive = no such curve, though single readings can be large or run the other way. Potencies of inconclusive entries are doubtful fits and often do not repeat. % is set by controls: 0 for no effect and ±100 for the full control effect; potency is the fitted concentration of half-maximal effect."}
{"molecular_target": "DNA polymerase beta (Homo sapiens) (UniProt P06746)", "assay": "qHTS Assay for Inhibitors of DNA Polymerase Beta", "settings": "Pol beta primer extension/strand displacement, fluorescence kinetic; activity change, negative = inhibition: at 114 µM (top of the series)", "procedure,_shortened": "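Preincubation: enzyme (10 nM) with compound, 15 min, RT. Reaction: substrate added to 50 nM final. Reads: 0 and 10 min. Analysis: normalized, Hill fit.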"}
{"smiles": "CCc1cccc2c(C(=O)CSc3nnc(-c4ccoc4C)n3C)c[nH]c12", "Potency": "inconclusive: 50.1 µM [inhibitor, partial curve, poor fit]"}
{"smiles": "COc1cccc(NC(=S)N2CCN(c3ccc([N+](=O)[O-])cc3)CC2)c1", "Potency": "inconclusive: 100 µM [inhibitor, single point]"}
{"smiles": "O=C1c2[nH]nc(-c3ccc(F)cc3)c2C(c2ccccc2F)N1c1ccccc1", "note": "(configuration not stated)", "activity change, negative = inhibition": "inactive: -23.2%"}
{"smiles": "Cc1ccc2[nH]c3c(=O)n(CC(=O)Nc4ccc(Br)cc4C)ncc3c2c1", "activity change, negative = inhibition": "inactive: 1.37%"}
{"smiles": "Cc1cc(C)c(NC(=O)CSc2nnnn2-c2cccnc2)c(C)c1", "activity change, negative = inhibition": "inactive: 13.5%"}
{"smiles": "CCC(=O)Nc1ccc(CCC(=O)N2CCCC2)cc1", "Potency": "inconclusive: 3.55 µM [inhibitor, full curve, poor fit]"}
{"smiles": "CC(=O)N1c2ccc(S(=O)(=O)NCC3CCC(C(=O)NCc4ccc(C)o4)CC3)cc2CC1C", "note": "(configuration not stated)", "Potency": "inconclusive: 39.8 µM [inhibitor, partial curve, poor fit]"}
{"smiles": "Cc1cccc(C)c1NC(=O)CSc1nnc(-c2ccco2)c(-c2ccco2)n1", "Potency": "active: 3.16 µM"}
{"smiles": "COc1ccc(CCNC(=O)C(C)n2nc(C)c3sc4ccccc4c3c2=O)c(OC)c1", "note": "(configuration not stated)", "Potency": "inconclusive: 50.1 µM [inhibitor, partial curve]"}
{"smiles": "O=C(Nc1nc2ccccc2s1)c1cc(-c2ccco2)nc2ccccc12", "activity change, negative = inhibition": "inactive: -0.0914%"}
{"smiles": "Cc1ccc(S(=O)(=O)Nc2ccc3nc(-c4cccc(Cl)c4)oc3c2)cc1", "Potency": "inconclusive: 89.1 µM [inhibitor, single point]"}
{"smiles": "COc1ccc2[nH]c3nc(SCC(=O)Nc4cccc(NC(C)=O)c4)nnc3c2c1", "Potency": "active: 35.5 µM"}
{"smiles": "COc1ccc(-c2cc(=O)c3c(O)cc(O[C@@H]4O[C@H](CO[C@@H]5O[C@@H](C)[C@H](O)[C@@H](O)[C@H]5O)[C@@H](O)[C@H](O)[C@H]4O)cc3o2)cc1O", "Potency": "active: 25.1 µM"}
{"smiles": "COc1ccccc1NC(=O)CN1C(=O)C(c2ccc(F)cc2)=NC12CCCCC2", "activity change, negative = inhibition": "inactive: -23.3%"}
{"smiles": "O=C(CNC(=O)c1cccs1)NCC(=O)OCc1cccc(Cl)c1", "Potency": "inconclusive: 15.8 µM [inhibitor, partial curve]"}
{"smiles": "CCc1ccccc1Nc1nn2c(=O)c3ccc(C(=O)NC(C)C)cc3nc2s1", "activity change, negative = inhibition": "inactive: 10.3%"}
{"smiles": "COc1ccc(O)c(C(=O)C2c3ccccc3C(=O)N2c2ccc(C)cc2)c1", "note": "(configuration not stated)", "activity change, negative = inhibition": "inactive: -9.22%"}
{"smiles": "N#CCCN1CCn2c1nc1ccccc12", "Potency": "inconclusive: 100 µM [inhibitor, single point]"}
{"smiles": "O=C1NC(c2ccccc2Br)=N/C1=C\\c1ccco1", "activity change, negative = inhibition": "inconclusive: -42.5% [inhibitor]"}
{"smiles": "O=[N+]([O-])c1ccc(-c2csc(N3CCCCCC3)n2)cc1", "Potency": "inconclusive: 17.8 µM [inhibitor, single point]"}
{"smiles": "CC(=O)c1ccc(NC(=O)CSc2nc(=O)n(Cc3ccccn3)c3c2CCC3)cc1", "activity change, negative = inhibition": "inactive: 17.9%"}
{"smiles": "Brc1ccc(/C=N/Nc2nncc(-c3ccccc3)n2)o1", "Potency": "inconclusive: 10 µM [inhibitor, partial curve, poor fit]"}
{"smiles": "N/C(=N\\O)c1ccc(NC(=O)c2ccc(Br)o2)cc1", "Potency": "inconclusive: 0.1 µM [inhibitor, full curve, poor fit]"}
{"smiles": "CCOc1ccc2[nH]c(=O)c(C(c3nnnn3Cc3ccco3)N3CCC(C)CC3)cc2c1", "note": "(configuration not stated)", "Potency": "inconclusive: 25.1 µM [inhibitor, full curve]"}
{"smiles": "CC1(OC(=O)CCc2ccccc2)C(=O)C=C2C=C(c3ccc(C#N)cc3)N(c3ccccc3)C=C2C1=O", "note": "(configuration not stated)", "activity change, negative = inhibition": "inactive: 19.9%"}
{"smiles": "CCC(C)NC(=O)c1cc2n(n1)CCCN(Cc1ccc(C)cc1)C2=O", "note": "(configuration not stated)", "activity change, negative = inhibition": "inactive: 6.26%"}
{"smiles": "O=[N+]([O-])c1c(Nc2ccccn2)cc(Cl)c2nonc12", "activity change, negative = inhibition": "inconclusive: -37.9% [inhibitor]"}
{"smiles": "Cc1ccccc1NC(=O)Cn1cnc2c(oc3nc4c(cc32)COC(C)(C)C4)c1=O", "Potency": "inconclusive: 50.1 µM [inhibitor, single point]"}
{"smiles": "Cc1cc(C)n2nc(SCc3cc(=O)oc4cc(O)ccc34)nc2n1", "Potency": "active: 12.6 µM"}
{"smiles": "COc1ccccc1C(=O)n1nc(-c2ccccc2)nc1NCc1ccc(Cl)cc1", "activity change, negative = inhibition": "inactive: 28%"}
{"smiles": "O=C(Nc1ccc(F)cc1)c1cccc2c1C(=O)N(Cc1ccccn1)C2", "Potency": "inconclusive: 0.708 µM [inhibitor, full curve, poor fit]"}
{"smiles": "Cc1ccccc1Nc1nn2c(=O)c3ccc(C(=O)NCc4cccs4)cc3nc2s1", "Potency": "active: 20 µM"}
{"smiles": "O=C(Cc1ccccc1)N/N=C/c1cc(Br)cc(Br)c1O", "activity change, negative = inhibition": "inactive: 42.8%"}
{"smiles": "COC1=C(Nc2ccccc2)C(=O)c2ccccc2C1=O", "Potency": "inconclusive: 50.1 µM [inhibitor, partial curve]"}
{"smiles": "Cc1nnc(SCC(=O)N2N=C(c3ccc(Cl)cc3)CC2c2ccco2)[nH]c1=O", "note": "(configuration not stated)", "Potency": "active: 20 µM"}
{"smiles": "Cc1ccc2sc(N(CCCN(C)C)C(=O)c3ccc(Br)s3)nc2c1C", "activity change, negative = inhibition": "inactive: 27.1%"}
{"smiles": "Cc1ccc(Nc2nc(N)nc(CSc3nc4ccccc4s3)n2)cc1", "Potency": "inconclusive: 0.141 µM [inhibitor, full curve, poor fit]"}
{"smiles": "Cc1c2cnn(CC(=O)NCc3ccc(Cl)cc3)c(=O)c2c(C)n1Cc1ccc(F)cc1", "Potency": "inconclusive: 20 µM [inhibitor, full curve]"}
{"smiles": "Cc1cc(C(=O)OCC(=O)c2cccc([N+](=O)[O-])c2)c2cccc(C)c2n1", "Potency": "inconclusive: 79.4 µM [inhibitor, single point]"}
{"smiles": "Cc1cc(C(=O)CSc2nn3c(=O)c(C(C)(C)C)nnc3s2)c(C)n1C1CC1", "activity change, negative = inhibition": "inactive: -17.2%"}
{"smiles": "Cc1ccc(C)c(NC(=O)Cn2c(SCC(=O)NCc3ccccc3)nc3ccccc32)c1", "Potency": "inconclusive: 44.7 µM [inhibitor, partial curve, poor fit]"}
{"smiles": "O=C(CSc1ccccc1F)NC(=O)NCc1ccco1", "Potency": "active: 10 µM"}
{"smiles": "Cc1ccc(Cn2ncc3c(N4CCN(CC#N)CC4)ncnc32)cc1", "Potency": "inconclusive: 100 µM [inhibitor, single point]"}
{"smiles": "CC(C)C(=O)Nc1ccc([N+](=O)[O-])cc1Br", "activity change, negative = inhibition": "inactive: 15%"}
{"smiles": "O=C(O)CSc1nc(-c2ccc(Cl)cc2)nc2c1oc1ccccc12", "Potency": "active: 56.2 µM"}
{"smiles": "CCN(c1ccccc1)S(=O)(=O)c1nnc(NC(=O)C2CCCCC2)s1", "activity change, negative = inhibition": "inactive: -24.6%"}
{"smiles": "COc1ccc2c(c1)c(N1CCCC1=O)c(C(=O)Nc1cc(C)c(Cl)cc1OC)n2C", "Potency": "inconclusive: 100 µM [inhibitor, single point]"}
